Taken from: PubChem BioAssay AID1224830 (NIAID, 2016)
Here is a random part of about 18,000 deposited reagents. Of all reagents, about 2,900 (16%) were called active. 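Calls are made per well; low scores hint the gene aids the LPS response, high scores that it dampens it.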 Unmarked entries are inactive. Repeated entries: four replicate wells of each siRNA pool.

- Screen: 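Genes whose knock-down alters the TNF-alpha reporter response to LPS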 (primary screen)
- Cells: human THP-1 monocytic leukaemia cells, TNF dual-luciferase reporter clone, PMA-differentiated to macrophage-like cells
- Reagent: siRNA pool against human genes, 50 nM
- Duration: LPS for 4 h, given about 3 days after siRNA transfection
- Conditions: bacterial LPS (TLR4 ligand), 10 ng/ml
- Measured: 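TNF firefly reporter luminescence divided by renilla, normalised to the plate median, then turned into a robust z-score for each replicate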
- Scale: TNF reporter robust z-score: higher = stronger TNF reporter response to LPS
- Call rule: 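Each well counts as active if its z-score is over 2.8 or under -1.5; controls are left without a call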

OR51Q1 → TNF reporter robust z-score = -0.29
OR51Q1 → TNF reporter robust z-score = -0.09
OR51Q1 → TNF reporter robust z-score = -0.19
OR51Q1 → TNF reporter robust z-score = 0.44
PGRMC2 → TNF reporter robust z-score = 1.46
PGRMC2 → TNF reporter robust z-score = 0.96
PGRMC2 → TNF reporter robust z-score = 0.33
PGRMC2 → TNF reporter robust z-score = -0.03
TRIM11 → TNF reporter robust z-score = -0.4
TRIM11 → TNF reporter robust z-score = -0.52
TRIM11 → TNF reporter robust z-score = -1.46
TRIM11 → TNF reporter robust z-score = -0.36
FAM110B → TNF reporter robust z-score = -0.19
FAM110B → TNF reporter robust z-score = 0.5
FAM110B → TNF reporter robust z-score = -0.22
FAM110B → TNF reporter robust z-score = -0.05
MYBPC3 → TNF reporter robust z-score = -0.53
MYBPC3 → TNF reporter robust z-score = 0.52
MYBPC3 → TNF reporter robust z-score = -0.28
MYBPC3 → TNF reporter robust z-score = 0.55
ESCO2 → TNF reporter robust z-score = 0.79
ESCO2 → TNF reporter robust z-score = 0.41
ESCO2 → TNF reporter robust z-score = 0.62
ESCO2 → TNF reporter robust z-score = -0.75
KRTAP11-1 → TNF reporter robust z-score = 1.3
KRTAP11-1 → TNF reporter robust z-score = 0.98
KRTAP11-1 → TNF reporter robust z-score = -2.09 (active)
KRTAP11-1 → TNF reporter robust z-score = 0.84
CLRN1 → TNF reporter robust z-score = -1.6 (active)
CLRN1 → TNF reporter robust z-score = -0.9
CLRN1 → TNF reporter robust z-score = -0.33
CLRN1 → TNF reporter robust z-score = -1.15
GALNT12 → TNF reporter robust z-score = -0.51
GALNT12 → TNF reporter robust z-score = 0.19
GALNT12 → TNF reporter robust z-score = 0.88
DACT1 → TNF reporter robust z-score = 1.13
DACT1 → TNF reporter robust z-score = 1.68
DACT1 → TNF reporter robust z-score = 0.97
DACT1 → TNF reporter robust z-score = 0.64
MT1G → TNF reporter robust z-score = -0.88
MT1G → TNF reporter robust z-score = -1.01
MT1G → TNF reporter robust z-score = -1.32
MT1G → TNF reporter robust z-score = -0.48
MARCHF3 → TNF reporter robust z-score = 1.59
MARCHF3 → TNF reporter robust z-score = 0.29
MARCHF3 → TNF reporter robust z-score = 0.11
MARCHF3 → TNF reporter robust z-score = 1.42

A stretch from the list above, as a working copy:
ESCO2 → TNF reporter robust z-score = 0.41
ESCO2 → TNF reporter robust z-score = 0.62
ESCO2 → TNF reporter robust z-score = -0.75
KRTAP11-1 → TNF reporter robust z-score = 1.3
KRTAP11-1 → TNF reporter robust z-score = 0.98
KRTAP11-1 → TNF reporter robust z-score = -2.09 (active)
KRTAP11-1 → TNF reporter robust z-score = 0.84
